At least one peptide structure holds a part that was inferred or is arguable (an end, a ring closure or a residue). Residues, ends and D or L forms follow the SMILES beside them. *: point of attachment. Myristoyl = CCCCCCCCCCCCCC(=O)*
Test system: MI/R injury
Assay: Myocardial ischemia/reperfusion (MI/R) injury model
Type: in vivo
Settings: mouse MI/R, 7-day post-procedure monitoring

CCCCCCCCCCCCCC(=O)N[C@@H](Cc1ccccc1)C(=O)N[C@@H](CCC(=O)O)C(=O)N[C@@H](CCC(=O)O)C(=O)N[C@@H](CCC(=O)O)C(=O)N[C@@H](CCCNC(=N)N)C(=O)N[C@@H](CC(C)C)C(=O)O [M3mP6, Myr-FEEERL (SEQ ID NO: 8)] (Myristoyl-FEEERL-OH; C-terminus assumed)
mortality rate: greatly reduced

Reference: patent publication US12721820B2, “Method of manufacturing peptide nanoparticles” (DuPage Medical Technology, Inc., priority 2020, dated 2026)
